PubChem BioAssay AID1259308 | NCATS – 2017

- Aim: 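Knock-downs that increase output of a recombinant reporter protein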 (primary screen)
- System: human HEK293 embryonic kidney cells stably expressing firefly luciferase (HEK-CMV-Luc2-Hygro)
- Knock-down reagent: single siRNA against human genes, 0.8 pmol siRNA per well
- Time to read-out: 72 h
- Detection: 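Reporter luminescence and viable-cell signal on separate replicate plates, given as percent of non-targeting control and median/MAD z-scores, plus per-cell luciferase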
- Reading the numbers: total luciferase, z-score: higher = more reporter protein produced
- Hit rule: 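Active when the median/MAD z-score for overall luciferase is greater than 3; a gene was taken forward for validation with new siRNAs if at least two of its three siRNAs passed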
- Meaning of the calls: active = raised luciferase; inactive = no rise
The whole screen tested about 59,000 reagents; this is an unselected part. About 1,510 of them (2.6%) count as active. 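Calls use total luciferase alone and ignore viability, so some active siRNAs may act by altering cell number.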 Reagents against one gene are numbered here. Further read-outs or replicates are left out here.

Gene	siRNA no.	total luciferase, z-score	call
VGLL1 (GeneID 51442)	1	-0.877	inactive
VGLL1 (GeneID 51442)	2	-0.145	inactive
VGLL1 (GeneID 51442)	3	-0.549	inactive
PGF (GeneID 5228)	1	0.593	inactive
PGF (GeneID 5228)	2	0.147	inactive
PGF (GeneID 5228)	3	1.81	inactive
FRMPD4 (GeneID 9758)	1	-0.921	inactive
FRMPD4 (GeneID 9758)	2	-2	inactive
FRMPD4 (GeneID 9758)	3	0.0271	inactive
PTCHD3P1 (GeneID 387647)	1	0.194	inactive
PTCHD3P1 (GeneID 387647)	2	-0.342	inactive
PTCHD3P1 (GeneID 387647)	3	0.471	inactive
ABRAXAS1 (GeneID 84142)	1	-0.401	inactive
ABRAXAS1 (GeneID 84142)	2	-1.13	inactive
ABRAXAS1 (GeneID 84142)	3	2.33	inactive
MPRIP (GeneID 23164)	1	-1.87	inactive
MPRIP (GeneID 23164)	2	-0.199	inactive
MPRIP (GeneID 23164)	3	1.25	inactive
ITM2B (GeneID 9445)	1	0.0345	inactive
ITM2B (GeneID 9445)	2	0.0533	inactive
ITM2B (GeneID 9445)	3	-0.209	inactive
TRAM1 (GeneID 23471)	1	5.3	active
TRAM1 (GeneID 23471)	2	-0.251	inactive
TRAM1 (GeneID 23471)	3	0.0496	inactive
PCDHB4 (GeneID 56131)	1	-0.0352	inactive
PCDHB4 (GeneID 56131)	2	-0.243	inactive
PCDHB4 (GeneID 56131)	3	1.19	inactive
TSPAN7 (GeneID 7102)	1	0.532	inactive
TSPAN7 (GeneID 7102)	2	1.8	inactive
TSPAN7 (GeneID 7102)	3	0.308	inactive
FANCG (GeneID 2189)	1	0.165	inactive
FANCG (GeneID 2189)	2	-1.48	inactive
FANCG (GeneID 2189)	3	-0.513	inactive
TNFAIP2 (GeneID 7127)	1	-0.672	inactive
TNFAIP2 (GeneID 7127)	2	0.112	inactive
TNFAIP2 (GeneID 7127)	3	1.14	inactive

Records listed so far whose target name starts with M or m (3):
Gene	siRNA no.	total luciferase, z-score	call
MPRIP (GeneID 23164)	1	-1.87	inactive
MPRIP (GeneID 23164)	2	-0.199	inactive
MPRIP (GeneID 23164)	3	1.25	inactive

The results go on.
Gene	siRNA no.	total luciferase, z-score	call
PRAMEF2 (GeneID 65122)	1	0.023	inactive
PRAMEF2 (GeneID 65122)	2	-0.962	inactive
PRAMEF2 (GeneID 65122)	3	1.61	inactive
ME1 (GeneID 4199)	1	-0.515	inactive
ME1 (GeneID 4199)	2	1.84	inactive
ME1 (GeneID 4199)	3	0.315	inactive
SLITRK2 (GeneID 84631)	1	-0.322	inactive
SLITRK2 (GeneID 84631)	2	0.112	inactive
SLITRK2 (GeneID 84631)	3	0.58	inactive
FERMT3 (GeneID 83706)	1	1.42	inactive
FERMT3 (GeneID 83706)	2	-0.75	inactive
FERMT3 (GeneID 83706)	3	1.04	inactive
CWC15 (GeneID 51503)	1	-0.0138	inactive
CWC15 (GeneID 51503)	2	-1.75	inactive
CWC15 (GeneID 51503)	3	0.182	inactive
ATP2B1-AS1 (GeneID 338758)	1	0.485	inactive
ATP2B1-AS1 (GeneID 338758)	2	-0.294	inactive
ATP2B1-AS1 (GeneID 338758)	3	0.574	inactive
TWF1 (GeneID 5756)	1	-0.427	inactive
TWF1 (GeneID 5756)	2	-0.989	inactive
TWF1 (GeneID 5756)	3	2.55	inactive
